Source: PMC6509358, “A Secreted RNA Binding Protein Forms RNA-Stabilizing Granules in the Honeybee Royal Jelly”
For at least one entry, the source does not settle the construct or the ends of the probe. For some assays here: A weaker result is weaker than the reference pair of the same experiment. For some assays here: At least one verdict rests on a figure or table, not on a statement of the authors. Tags and fusion partners may be left off the protein sequences shown.

Tests used:
[1] = target: T1, MRJP-3 (jelly-purified) (Apis mellifera) (UniProt Q17060); assay: EMSA; settings: 42.8 uM protein, EMSA: room temperature 0.5-3 h, 0.8% agarose, 1xTAE, native protein
T1 sequence (looked up, limits assumed): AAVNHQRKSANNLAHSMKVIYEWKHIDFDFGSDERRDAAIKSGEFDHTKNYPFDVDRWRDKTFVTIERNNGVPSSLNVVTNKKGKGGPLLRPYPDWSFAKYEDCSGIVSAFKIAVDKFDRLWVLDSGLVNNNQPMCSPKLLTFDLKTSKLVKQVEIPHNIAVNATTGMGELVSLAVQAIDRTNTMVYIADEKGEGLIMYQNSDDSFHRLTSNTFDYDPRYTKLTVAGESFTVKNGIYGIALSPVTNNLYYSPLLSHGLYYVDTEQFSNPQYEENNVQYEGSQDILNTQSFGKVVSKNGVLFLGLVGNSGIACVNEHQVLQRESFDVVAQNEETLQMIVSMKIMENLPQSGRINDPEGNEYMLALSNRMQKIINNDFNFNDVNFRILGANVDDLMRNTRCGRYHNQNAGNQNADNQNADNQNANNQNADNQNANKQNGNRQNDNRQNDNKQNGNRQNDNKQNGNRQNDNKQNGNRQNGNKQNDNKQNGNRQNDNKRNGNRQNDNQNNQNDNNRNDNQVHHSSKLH

[2] = target: T1, MRJP-3 (jelly-purified) (Apis mellifera); assay: MST; settings: 25 C, native protein, label: Alexa Fluor 488 (Ulysis)
[3] = below 18 nt minimum for efficient binding

“ACGCUUCUAACUUCAAGAUUUUACACAAUCAUAUGGGCUCACUGUUACUA / UAGUAACAGUGAGCCCAUAUGAUUGUGUAAAAUCUUGAAGUUAGAAGCGU [50 bp dsRNA]”: binds ([1]; 0.27 uM RNA).
ACUGUUACUA [10 nt ssRNA]: binds more weakly [1, 3].
AGGUAAGAUGUUGGUAUAGCUGA [23 nt ssRNA]: binds [1].
GGCUCACUGUUACUA [15 nt ssRNA]: binds more weakly [1, 3].
In the case of “UCAUAUGGGCUCACUGUUACUA / UAGUAACAGUGAGCCCAUAUGA [22 nt dsRNA]”, the Kd ([2]; first of two binding phases) is reported as 11 nM and the Kd ([2]; second of two binding phases) is reported as 150 nM.
UGUGUUUAUAGCGGAUUUUG [20 nt ssRNA]: binds [1].
UGUGUUUAUAGCGGAUUUUGA [21 nt ssRNA]: binds [1].
